In the supplement of paper PMC10849652:
The other results are listed elsewhere or left out.

Amino acid sequences for entries named in this document (tags omitted). A change or cut given only in a name is not applied to a line headed by its entry.
UniProt Q04828: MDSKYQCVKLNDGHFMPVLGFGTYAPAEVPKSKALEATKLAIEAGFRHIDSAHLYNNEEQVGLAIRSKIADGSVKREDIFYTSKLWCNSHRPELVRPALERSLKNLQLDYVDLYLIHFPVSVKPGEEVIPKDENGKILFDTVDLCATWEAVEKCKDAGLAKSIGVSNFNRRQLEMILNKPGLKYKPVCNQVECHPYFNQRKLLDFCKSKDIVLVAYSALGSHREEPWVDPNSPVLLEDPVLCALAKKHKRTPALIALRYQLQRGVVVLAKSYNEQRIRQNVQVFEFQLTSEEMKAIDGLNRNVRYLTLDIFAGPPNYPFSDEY
UniProt Q02040: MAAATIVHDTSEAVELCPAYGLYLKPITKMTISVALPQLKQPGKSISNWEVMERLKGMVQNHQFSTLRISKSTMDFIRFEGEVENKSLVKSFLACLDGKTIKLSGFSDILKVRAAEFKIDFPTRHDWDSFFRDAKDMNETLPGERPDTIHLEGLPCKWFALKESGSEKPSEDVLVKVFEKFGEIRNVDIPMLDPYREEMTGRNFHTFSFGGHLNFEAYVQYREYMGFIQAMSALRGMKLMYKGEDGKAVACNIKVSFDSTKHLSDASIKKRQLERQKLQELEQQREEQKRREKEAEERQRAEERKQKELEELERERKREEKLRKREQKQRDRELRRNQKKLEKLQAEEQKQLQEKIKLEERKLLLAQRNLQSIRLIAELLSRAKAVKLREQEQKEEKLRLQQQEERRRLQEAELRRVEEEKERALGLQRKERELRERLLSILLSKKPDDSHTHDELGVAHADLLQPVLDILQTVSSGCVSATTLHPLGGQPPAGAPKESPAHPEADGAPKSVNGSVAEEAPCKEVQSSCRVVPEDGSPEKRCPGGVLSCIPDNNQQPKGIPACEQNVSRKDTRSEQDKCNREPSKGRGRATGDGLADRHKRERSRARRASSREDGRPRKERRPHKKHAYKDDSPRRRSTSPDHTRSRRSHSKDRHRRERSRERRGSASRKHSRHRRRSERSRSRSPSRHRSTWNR
UniProt Q8NHP1: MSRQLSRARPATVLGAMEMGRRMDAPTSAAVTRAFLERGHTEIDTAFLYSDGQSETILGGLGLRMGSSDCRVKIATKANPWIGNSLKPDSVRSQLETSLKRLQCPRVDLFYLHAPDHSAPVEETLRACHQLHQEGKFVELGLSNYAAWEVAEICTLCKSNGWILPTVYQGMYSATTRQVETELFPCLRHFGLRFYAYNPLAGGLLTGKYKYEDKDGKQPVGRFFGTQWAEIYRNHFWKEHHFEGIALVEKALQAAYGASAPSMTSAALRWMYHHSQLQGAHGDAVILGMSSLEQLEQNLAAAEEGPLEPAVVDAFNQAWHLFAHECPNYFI
UniProt P35612: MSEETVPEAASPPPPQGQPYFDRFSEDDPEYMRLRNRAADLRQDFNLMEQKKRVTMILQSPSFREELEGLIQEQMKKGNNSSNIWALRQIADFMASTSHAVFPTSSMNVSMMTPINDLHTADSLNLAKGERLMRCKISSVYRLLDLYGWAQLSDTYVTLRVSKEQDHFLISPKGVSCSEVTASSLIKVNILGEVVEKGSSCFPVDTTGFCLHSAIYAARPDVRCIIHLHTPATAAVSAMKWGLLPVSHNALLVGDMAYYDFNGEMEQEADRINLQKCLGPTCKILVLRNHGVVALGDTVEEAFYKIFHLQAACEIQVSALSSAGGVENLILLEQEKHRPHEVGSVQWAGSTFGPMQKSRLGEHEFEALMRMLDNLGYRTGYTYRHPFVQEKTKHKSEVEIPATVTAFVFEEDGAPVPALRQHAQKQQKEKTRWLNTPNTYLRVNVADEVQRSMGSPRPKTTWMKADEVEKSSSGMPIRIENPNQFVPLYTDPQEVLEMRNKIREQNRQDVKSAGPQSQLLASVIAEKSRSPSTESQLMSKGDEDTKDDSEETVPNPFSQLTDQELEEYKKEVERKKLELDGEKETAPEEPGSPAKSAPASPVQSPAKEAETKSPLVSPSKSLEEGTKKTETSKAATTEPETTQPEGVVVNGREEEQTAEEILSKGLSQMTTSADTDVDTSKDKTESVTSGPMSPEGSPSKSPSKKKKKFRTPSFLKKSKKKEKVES
UniProt Q9NRZ5: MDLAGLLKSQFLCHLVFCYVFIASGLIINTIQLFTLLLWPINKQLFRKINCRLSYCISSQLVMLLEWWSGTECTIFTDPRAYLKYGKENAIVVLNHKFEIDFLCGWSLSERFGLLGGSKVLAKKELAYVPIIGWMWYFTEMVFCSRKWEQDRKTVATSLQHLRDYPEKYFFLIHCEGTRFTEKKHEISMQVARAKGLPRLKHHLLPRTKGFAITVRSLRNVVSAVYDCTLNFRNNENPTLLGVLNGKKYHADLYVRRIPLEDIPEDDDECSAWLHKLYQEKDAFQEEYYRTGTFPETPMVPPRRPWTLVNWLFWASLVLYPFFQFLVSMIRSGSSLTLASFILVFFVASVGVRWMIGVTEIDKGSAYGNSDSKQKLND
UniProt Q3LIE5: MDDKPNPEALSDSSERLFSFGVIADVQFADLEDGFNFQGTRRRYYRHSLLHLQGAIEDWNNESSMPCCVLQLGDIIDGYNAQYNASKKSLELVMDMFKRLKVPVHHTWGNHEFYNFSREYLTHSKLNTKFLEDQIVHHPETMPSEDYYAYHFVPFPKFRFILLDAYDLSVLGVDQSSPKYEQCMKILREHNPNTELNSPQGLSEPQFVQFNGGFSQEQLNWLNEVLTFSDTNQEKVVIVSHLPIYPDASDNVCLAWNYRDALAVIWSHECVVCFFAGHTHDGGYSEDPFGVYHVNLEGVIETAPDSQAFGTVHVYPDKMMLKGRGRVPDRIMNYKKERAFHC
UniProt Q9H9F9, whole entry, looked up: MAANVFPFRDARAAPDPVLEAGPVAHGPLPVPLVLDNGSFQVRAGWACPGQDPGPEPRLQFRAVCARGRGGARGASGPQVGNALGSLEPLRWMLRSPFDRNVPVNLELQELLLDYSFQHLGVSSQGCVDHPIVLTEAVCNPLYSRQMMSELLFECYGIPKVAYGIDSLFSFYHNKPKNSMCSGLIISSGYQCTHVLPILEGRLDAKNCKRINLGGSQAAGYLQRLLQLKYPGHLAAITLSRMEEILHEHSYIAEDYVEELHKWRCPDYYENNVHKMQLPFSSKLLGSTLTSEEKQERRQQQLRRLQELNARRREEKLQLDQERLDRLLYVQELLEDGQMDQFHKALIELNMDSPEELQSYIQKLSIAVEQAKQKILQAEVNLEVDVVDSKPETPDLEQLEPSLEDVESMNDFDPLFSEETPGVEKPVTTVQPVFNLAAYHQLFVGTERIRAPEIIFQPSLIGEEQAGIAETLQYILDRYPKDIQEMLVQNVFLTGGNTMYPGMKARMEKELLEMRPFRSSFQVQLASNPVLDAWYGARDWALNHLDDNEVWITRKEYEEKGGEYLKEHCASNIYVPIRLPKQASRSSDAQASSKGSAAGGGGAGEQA
UniProt Q96A54: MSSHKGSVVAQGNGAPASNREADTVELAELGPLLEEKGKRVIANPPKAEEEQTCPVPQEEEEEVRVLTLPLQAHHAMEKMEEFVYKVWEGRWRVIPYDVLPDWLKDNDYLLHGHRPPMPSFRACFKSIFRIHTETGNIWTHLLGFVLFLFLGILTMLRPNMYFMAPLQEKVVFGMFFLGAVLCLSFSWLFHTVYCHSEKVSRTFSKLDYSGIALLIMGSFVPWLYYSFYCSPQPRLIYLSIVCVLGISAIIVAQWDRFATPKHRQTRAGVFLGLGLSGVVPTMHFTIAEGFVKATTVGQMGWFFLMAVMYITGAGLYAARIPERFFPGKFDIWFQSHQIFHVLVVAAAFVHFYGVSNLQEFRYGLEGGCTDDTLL
UniProt Q04771: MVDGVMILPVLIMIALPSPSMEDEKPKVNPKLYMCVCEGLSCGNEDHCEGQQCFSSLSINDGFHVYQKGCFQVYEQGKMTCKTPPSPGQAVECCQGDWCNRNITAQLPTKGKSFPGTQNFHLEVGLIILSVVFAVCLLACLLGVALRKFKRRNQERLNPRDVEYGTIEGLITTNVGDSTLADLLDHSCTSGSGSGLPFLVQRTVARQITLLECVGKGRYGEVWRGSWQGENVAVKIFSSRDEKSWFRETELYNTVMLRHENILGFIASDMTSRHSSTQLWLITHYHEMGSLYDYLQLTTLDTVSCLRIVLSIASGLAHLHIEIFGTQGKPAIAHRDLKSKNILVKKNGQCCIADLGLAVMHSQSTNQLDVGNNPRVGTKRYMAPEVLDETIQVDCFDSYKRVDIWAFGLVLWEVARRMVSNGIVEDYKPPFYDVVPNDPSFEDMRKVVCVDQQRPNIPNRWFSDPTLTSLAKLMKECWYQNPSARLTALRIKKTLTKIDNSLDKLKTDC
UniProt P78536: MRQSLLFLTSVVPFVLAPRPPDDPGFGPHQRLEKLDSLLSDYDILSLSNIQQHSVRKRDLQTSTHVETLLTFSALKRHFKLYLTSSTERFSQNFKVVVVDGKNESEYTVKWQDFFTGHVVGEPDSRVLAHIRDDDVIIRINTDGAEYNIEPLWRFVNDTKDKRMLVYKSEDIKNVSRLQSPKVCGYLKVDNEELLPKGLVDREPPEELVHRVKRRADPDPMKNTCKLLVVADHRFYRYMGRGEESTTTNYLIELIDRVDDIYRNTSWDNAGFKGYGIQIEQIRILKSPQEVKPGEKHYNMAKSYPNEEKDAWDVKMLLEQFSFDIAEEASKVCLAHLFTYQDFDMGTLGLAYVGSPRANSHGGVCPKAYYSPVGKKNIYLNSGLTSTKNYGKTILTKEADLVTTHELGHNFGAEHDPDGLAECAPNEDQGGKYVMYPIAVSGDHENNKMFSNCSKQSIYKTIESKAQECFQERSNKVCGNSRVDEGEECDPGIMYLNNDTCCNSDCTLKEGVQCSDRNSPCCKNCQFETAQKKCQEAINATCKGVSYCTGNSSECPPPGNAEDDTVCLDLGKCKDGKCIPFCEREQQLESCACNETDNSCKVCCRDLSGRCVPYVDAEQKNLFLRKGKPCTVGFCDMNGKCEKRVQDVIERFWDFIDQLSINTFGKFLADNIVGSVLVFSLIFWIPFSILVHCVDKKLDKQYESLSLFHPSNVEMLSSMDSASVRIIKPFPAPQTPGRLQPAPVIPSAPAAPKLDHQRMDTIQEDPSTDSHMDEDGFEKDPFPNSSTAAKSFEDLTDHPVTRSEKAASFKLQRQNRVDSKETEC
UniProt Q63HM1: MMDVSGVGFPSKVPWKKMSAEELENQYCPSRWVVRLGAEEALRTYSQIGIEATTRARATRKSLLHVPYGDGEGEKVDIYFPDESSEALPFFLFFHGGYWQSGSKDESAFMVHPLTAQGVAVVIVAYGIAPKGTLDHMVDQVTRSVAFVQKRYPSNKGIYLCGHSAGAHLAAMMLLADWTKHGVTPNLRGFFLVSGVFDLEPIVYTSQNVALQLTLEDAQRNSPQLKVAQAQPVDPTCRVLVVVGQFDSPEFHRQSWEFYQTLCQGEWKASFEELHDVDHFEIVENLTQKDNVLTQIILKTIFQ
UniProt O15120: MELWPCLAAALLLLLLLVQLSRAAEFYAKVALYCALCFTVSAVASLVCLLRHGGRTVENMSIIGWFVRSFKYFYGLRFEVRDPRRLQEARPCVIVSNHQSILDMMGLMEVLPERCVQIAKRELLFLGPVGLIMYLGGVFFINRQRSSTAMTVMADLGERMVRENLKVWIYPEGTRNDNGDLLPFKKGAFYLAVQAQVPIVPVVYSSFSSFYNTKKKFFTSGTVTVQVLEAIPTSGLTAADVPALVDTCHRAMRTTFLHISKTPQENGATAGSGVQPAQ
UniProt P43652: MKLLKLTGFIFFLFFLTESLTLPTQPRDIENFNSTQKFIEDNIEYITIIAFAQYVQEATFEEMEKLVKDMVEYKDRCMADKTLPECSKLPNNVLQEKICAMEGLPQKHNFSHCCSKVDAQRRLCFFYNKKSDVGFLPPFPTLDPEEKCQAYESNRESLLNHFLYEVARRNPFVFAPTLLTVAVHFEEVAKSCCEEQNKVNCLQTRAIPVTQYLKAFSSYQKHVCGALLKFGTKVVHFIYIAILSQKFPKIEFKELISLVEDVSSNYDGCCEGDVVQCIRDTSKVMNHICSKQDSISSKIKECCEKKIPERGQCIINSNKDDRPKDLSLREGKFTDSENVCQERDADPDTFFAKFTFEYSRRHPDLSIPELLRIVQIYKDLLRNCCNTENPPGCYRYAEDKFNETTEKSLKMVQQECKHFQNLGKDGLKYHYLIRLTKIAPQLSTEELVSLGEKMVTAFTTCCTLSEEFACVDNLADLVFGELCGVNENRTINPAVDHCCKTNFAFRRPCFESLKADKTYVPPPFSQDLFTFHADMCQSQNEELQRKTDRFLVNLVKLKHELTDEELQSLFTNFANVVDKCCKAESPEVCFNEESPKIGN

These targets were tested with CS(=O)(=O)CCNCc1ccc(-c2ccc3ncnc(Nc4ccc(OCc5cccc(F)c5)c(Cl)c4)c3c2)o1 [lapatinib] (assay: log2 fold change, soluble protein after heating vs DMSO (PISA); higher = thermal stabilisation; K562 lysate, 10 uM; active = over 0.2 and 3.5 SD of the protein, either way, in both replicates (recomputed)).
How it was run: (§1)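 Values give the log-two fold change in thermal stability against solvent controls, from duplicates. Crude K562 extract at 1 mg/mL protein, made by dounce homogenisation in PBS pH 7.4 with 1 mM MgCl2, was treated with 10 μM compound for 30 min. After 3 min heating across 48°C-58°C, aliquots were pooled, adjusted to 0.5% NP-40 at 4°C and centrifuged at 21,000xg for 90 min. The supernatant was measured by TMTpro 16plex LC-MS/MS with channel sums equalised.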
AKR1C1 (UniProt Q04828) was tested, and the log2 fold change was inactive: -0.176.
In the case of AKAP17A (UniProt Q02040), the log2 fold change is reported as inactive: -0.167.
For AKR7L (UniProt Q8NHP1), the log2 fold change was inactive: 0.052.
With AHCTF1 isoform 2 (UniProt Q8WYP5) the log2 fold change was inactive: -0.1.
ACTB, A0A2R8YEA7 was tested, and the log2 fold change was inactive: 0.022.
In the case of ADAD1 (UniProt Q96M93), the log2 fold change is reported as inactive: -0.081.
For AGA (UniProt P20933), the log2 fold change was inactive: 0.014.
With ACTR8 (UniProt Q9H981) the log2 fold change was inactive: -0.056.
For AGO2 (UniProt E5RJY2), the log2 fold change was inactive: 0.089.
With ADD2 isoform 9 (UniProt P35612) the log2 fold change was inactive: 0.163.
With ACTG1 (UniProt K7EM38) the log2 fold change was inactive: -0.08.

The targets below were run with CS(=O)(=O)N1CCN(Cc2cc3nc(-c4cccc5[nH]ncc45)nc(N4CCOCC4)c3s2)CC1 [pictilisib] in the same assay as above.
How it was run: as §1
For AGPAT4 (UniProt Q9NRZ5), the log2 fold change was inactive: 0.005.
For ACSS3 (UniProt Q9H6R3), the log2 fold change was inactive: -0.15.
For AHDC1 (UniProt Q5TGY3), the log2 fold change was inactive: -0.044.
For ADPRM (UniProt Q3LIE5), the log2 fold change was inactive: 0.09.
In the case of ADAT1 (UniProt Q9BUB4), the log2 fold change is reported as inactive: -0.091.
With ACOX3 (UniProt O15254) the log2 fold change was inactive: -0.204.
For ACTB, A0A2R8YGF8, the log2 fold change was inactive: -0.107.
For ACTR5 (UniProt Q9H9F9), the log2 fold change was inactive: -0.002.
ADIPOR1 (UniProt Q96A54) was tested, and the log2 fold change was inactive: 0.002.
With ACVR1 (UniProt Q04771) the log2 fold change was inactive: 0.006.
In the case of ADAM17 (UniProt P78536), the log2 fold change is reported as inactive: 0.032.

These targets were tested with C[C@@H](Oc1cc(-c2cnn(C3CCNCC3)c2)cnc1N)c1c(Cl)ccc(F)c1Cl [crizotinib] in the same assay as above.
How it was run: as §1
AFDN (UniProt H0Y948) was tested, and the log2 fold change was inactive: 0.249.
For AKAP17A (UniProt Q02040), the log2 fold change was inactive: -0.004.
AGPAT4 (UniProt Q9NRZ5) was tested, and the log2 fold change was inactive: -0.035.
With ADPRM (UniProt Q3LIE5) the log2 fold change was inactive: -0.017.
With AKR7L (UniProt Q8NHP1) the log2 fold change was inactive: -0.033.
In the case of AFMID isoform 2 (UniProt Q63HM1), the log2 fold change is reported as inactive: -0.051.
AJUBA (UniProt Q96IF1) was tested, and the log2 fold change was inactive: 0.023.
ACTR5 (UniProt Q9H9F9) was tested, and the log2 fold change was inactive: 0.069.
In the case of ADD3 isoform 2 (UniProt Q9UEY8), the log2 fold change is reported as inactive: 0.027.
In the case of ADIPOR1 (UniProt Q96A54), the log2 fold change is reported as inactive: -0.009.
AGA (UniProt P20933) was tested, and the log2 fold change was inactive: -0.19.
With ADAM17 (UniProt P78536) the log2 fold change was inactive: 0.051.
With AGPAT2 (UniProt O15120) the log2 fold change was inactive: -0.097.

The targets below were run with C[C@H](C1=CC=C(C=C1)C(=O)NC2=C3C=CNC3=NC=C2)N in the same assay as above.
How it was run: as §1
AKR1C1 (UniProt Q04828) was tested, and the log2 fold change was inactive: 0.12.
With AFM (UniProt P43652) the log2 fold change was inactive: 0.012.
In the case of AGPAT4 (UniProt Q9NRZ5), the log2 fold change is reported as inactive: -0.273.
ADCK1 (UniProt Q86TW2) was tested, and the log2 fold change was inactive: 0.157.
ADPRM (UniProt Q3LIE5) was tested, and the log2 fold change was inactive: -0.122.
For AFMID isoform 2 (UniProt Q63HM1), the log2 fold change was inactive: -0.078.
In the case of ACTB, A0A2R8YGF8, the log2 fold change is reported as inactive: -0.222.
AHCTF1 isoform 2 (UniProt Q8WYP5) was tested, and the log2 fold change was inactive: -0.04.
ACTB, A0A2R8YEA7 was tested, and the log2 fold change was inactive: -0.128.
ACTR5 (UniProt Q9H9F9) was tested, and the log2 fold change was inactive: 0.13.
In the case of ADIPOR1 (UniProt Q96A54), the log2 fold change is reported as inactive: 0.091.
ACVR1 (UniProt Q04771) was tested, and the log2 fold change was inactive: 0.103.
For ADAM17 (UniProt P78536), the log2 fold change was inactive: 0.008.
In the case of AGO2 (UniProt E5RJY2), the log2 fold change is reported as inactive: -0.386.
For ADD2 isoform 9 (UniProt P35612), the log2 fold change was inactive: -0.168.
For AGPAT2 (UniProt O15120), the log2 fold change was inactive: 0.006.

The targets below were run with C[C@H](Nc1ncnc2nc[nH]c12)c1cc2cccc(Cl)c2c(=O)n1-c1ccccc1 [duvelisib] in the same assay as above.
How it was run: as §1
AKR1C1 (UniProt Q04828) was tested, and the log2 fold change was inactive: 0.037.
In the case of AKAP17A (UniProt Q02040), the log2 fold change is reported as inactive: -0.03.
For AKR7L (UniProt Q8NHP1), the log2 fold change was inactive: -0.101.
For AJUBA (UniProt Q96IF1), the log2 fold change was inactive: -0.12.
With ACOX3 (UniProt O15254) the log2 fold change was inactive: 0.006.
In the case of ADCY7 (UniProt P51828), the log2 fold change is reported as inactive: -0.05.
In the case of ACTR5 (UniProt Q9H9F9), the log2 fold change is reported as inactive: 0.071.
For ADIPOR1 (UniProt Q96A54), the log2 fold change was inactive: 0.004.
For ACTN4 (UniProt H7C144), the log2 fold change was inactive: -0.078.
For ADAD1 (UniProt Q96M93), the log2 fold change was inactive: 0.042.
For ACVR1 (UniProt Q04771), the log2 fold change was inactive: -0.015.
For ACTR8 (UniProt Q9H981), the log2 fold change was inactive: -0.086.
With ADAM17 (UniProt P78536) the log2 fold change was inactive: 0.024.
AKR1B10 (UniProt O60218) was tested, and the log2 fold change was inactive: -0.023.
With ADCY3 (UniProt O60266) the log2 fold change was inactive: 0.055.
With ADD2 isoform 9 (UniProt P35612) the log2 fold change was inactive: -0.142.

The targets below were run with Cc1cc(Nc2cc(CN3CCOCC3)c3nc(C)c(Cc4ccc(Cl)cc4F)n3n2)n[nH]1 [gandotinib] in the same assay as above.
How it was run: as §1
With AKR1C1 (UniProt Q04828) the log2 fold change was inactive: -0.095.
With AFM (UniProt P43652) the log2 fold change was inactive: -0.032.
For AGPAT4 (UniProt Q9NRZ5), the log2 fold change was inactive: 0.019.
In the case of ADCK1 (UniProt Q86TW2), the log2 fold change is reported as inactive: 0.19.
With ADPRM (UniProt Q3LIE5) the log2 fold change was inactive: 0.08.
With AFMID isoform 2 (UniProt Q63HM1) the log2 fold change was inactive: -0.008.
ACTB, A0A2R8YGF8 was tested, and the log2 fold change was inactive: -0.108.
In the case of AHCTF1 isoform 2 (UniProt Q8WYP5), the log2 fold change is reported as inactive: 0.118.
With ACTB, A0A2R8YEA7 the log2 fold change was inactive: 0.083.
For ACTR5 (UniProt Q9H9F9), the log2 fold change was inactive: -0.03.
In the case of ADIPOR1 (UniProt Q96A54), the log2 fold change is reported as inactive: -0.097.
With ACVR1 (UniProt Q04771) the log2 fold change was inactive: 0.643.
For ADAM17 (UniProt P78536), the log2 fold change was inactive: 0.054.
With AGO2 (UniProt E5RJY2) the log2 fold change was inactive: 0.131.
In the case of ADD2 isoform 9 (UniProt P35612), the log2 fold change is reported as inactive: 0.133.
AGPAT2 (UniProt O15120) was tested, and the log2 fold change was inactive: -0.145.
